{"source": "patent US8883203B2", "about": "“Solid oral dosage form containing an enhancer” (Merrion Research III Limited, priority 2006, dated 2014)", "origin": "cited, not measured here", "details": "in vivo; cited from earlier work", "data": [{"smiles": "NCCCC(O)(P(=O)(O)O)P(=O)(O)O", "note": "[alendronate, Alendronate monosodium trihydrate]", "values": [{"measurement": "impairment of absorption by coffee or orange juice", "result": "≥ 60", "unit": "%"}]}]}
